Laboratory results taken from paper PMC7862700.
Only a part is listed here, and it is no random draw. At the low end of the ranking the order means little.

Sequences of proteins named here, by UniProt entry; tags and fusion partners are left off. A change or cut given only in a name is not applied to a line headed by its entry.
UniProt Q9Y603: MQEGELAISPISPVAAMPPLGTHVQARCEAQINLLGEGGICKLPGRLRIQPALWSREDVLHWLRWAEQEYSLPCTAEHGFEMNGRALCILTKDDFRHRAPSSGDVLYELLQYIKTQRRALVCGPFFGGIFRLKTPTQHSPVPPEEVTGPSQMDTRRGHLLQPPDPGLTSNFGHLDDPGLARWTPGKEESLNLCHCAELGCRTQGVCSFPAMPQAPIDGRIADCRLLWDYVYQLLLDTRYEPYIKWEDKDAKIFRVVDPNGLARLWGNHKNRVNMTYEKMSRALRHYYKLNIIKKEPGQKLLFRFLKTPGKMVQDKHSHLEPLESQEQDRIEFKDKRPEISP
UniProt P41212: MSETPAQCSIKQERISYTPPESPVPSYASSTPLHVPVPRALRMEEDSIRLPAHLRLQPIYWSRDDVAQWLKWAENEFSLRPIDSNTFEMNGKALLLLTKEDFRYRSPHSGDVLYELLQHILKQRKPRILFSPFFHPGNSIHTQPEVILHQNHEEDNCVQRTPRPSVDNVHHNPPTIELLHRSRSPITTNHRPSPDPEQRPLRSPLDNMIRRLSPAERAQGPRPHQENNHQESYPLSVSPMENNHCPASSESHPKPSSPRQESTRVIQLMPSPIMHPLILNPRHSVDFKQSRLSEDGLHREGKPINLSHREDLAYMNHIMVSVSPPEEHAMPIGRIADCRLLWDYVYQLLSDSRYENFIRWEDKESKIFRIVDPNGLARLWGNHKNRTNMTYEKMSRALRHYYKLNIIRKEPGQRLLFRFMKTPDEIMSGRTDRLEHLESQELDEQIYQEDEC

Tests used:
ETV7 = ETV7 (UniProt Q9Y603); experiment: DAPPL (digital affinity profiling via proximity ligation, sequencing); conditions: 10 mM Tris-HCl pH 7.5, 50 mM NaCl, 1 mM DTT, 4% glycerol, room temperature, 30 min; GST-TFs on glutathione beads, 16-mer random dsDNA library, 0.1% …; high values mean tight binding; double strand, one strand shown; scale: fold enrichment (6-mer frequency, TF over GST control)
ETV6 = ETV6 (UniProt P41212); experiment: as above; conditions: 10 mM Tris-HCl pH 7.5, 50 mM NaCl, 1 mM DTT, 4% glycerol, room temperature, 30 min; GST-TFs on glutathione beads, 16-mer random dsDNA library, 0.1% …; high values mean tight binding; double strand, one strand shown; scale: fold enrichment (6-mer frequency, TF over GST control)

Sequence	binding signal (ETV7)	binding signal (ETV6)
GTCTTT	1.28	–
TATCTA	1.26	–
AGCCCC	0.951	1.12
CAATCC	1.16	1.22
CGGATA	1.09	–
TGATCT	1.11	–
GCTTTG	1.44	1.24
GGCCCC	0.986	0.912
CTGTTA	1.12	–
GCTCGT	1.11	1.16
TACTTG	1.34	1.24
TGAAAA	1.07	0.995
GAACCA	0.938	0.959
GTTCTA	1.2	–
ACATTC	1.31	1.4
CCCTAA	1.14	–
TCATGC	1.17	1.11
TAGCCC	1.05	1.04
TCTTGA	1.22	1.24
CCCGTT	1.19	1.16
CCGAAG	0.953	0.974
GCTCAG	0.952	–
CTGGTT	1.28	1.32
AGACCT	0.843	–
ATCTCG	1.38	1.3

Sequence	binding signal (ETV7)	binding signal (ETV6)
TACATG	1.25	1.24
CTATAC	1.19	–
TACCAA	1.13	1.17
ACGCCC	1.03	1.13
CTGCTA	1.5	1.39
GATTAT	1.18	1.12
TAATAG	1.2	1.14
CTGCGA	1.26	1.29
TATTGG	1.19	1.21
TGCGTA	1.01	1.11
GCCTCA	1.24	1.18
TTGGGT	1.08	0.994
TTAATT	1.55	1.4
ACGATC	1	0.995
GGCTCA	1.15	1.26
AACATG	–	1.25
TGCTCA	1.54	1.28
GGTCTT	1.19	0.976
TGACCT	1.75	1.66
TAATAA	–	1.17
CCCCCG	1.05	1.12
CCATTG	–	1.12
ACTCTC	1.27	1.33
ATCTGT	1.21	1.12
ATTGAT	–	1.24

Sequence	binding signal (ETV7)	binding signal (ETV6)
AGGAAA	1.46	1.75
TACCGC	–	1.04
TTTCCT	2.31	2.86
TTTCGA	–	1.33
CATGCT	–	1.28
CGCGAC	0.946	1.04
GAAATA	1.6	1.75
TCCTCT	–	1.64
ATGTCC	–	1.57
ATGATT	–	1.19
TTATAG	–	1.16
TACTGA	–	0.943
AACAAA	1.13	1.18
TATGCG	1.51	1.22
TTCATC	–	1.23
CGACTA	1.31	1.28
ACATAC	–	1.17
CACAAT	0.967	1.09
CTTGGG	–	1.23
TCGACT	1.32	1.35
GTTCAT	–	1.17
CCTAGA	0.961	0.975
TTCTCC	–	1.48
ATTTTT	1.19	1.17
ATGGAA	1.35	1.28

Complete entries, quoted from the list:
TATTGG in the list: binding signal (ETV7) = 1.19; binding signal (ETV6) = 1.21
TACTGA in the list: binding signal (ETV6) = 0.943
GCTCGT in the list: binding signal (ETV7) = 1.11; binding signal (ETV6) = 1.16
TTGGGT in the list: binding signal (ETV7) = 1.08; binding signal (ETV6) = 0.994
